The subject of this assay is Werner syndrome hMSCs (WRN-/-). The experiment in a line: relative cell density (fold change vs vehicle control); higher = more proliferation (geroprotective). To be noted: concentration (umol/L): 1, 6 days.

Each structure is given as a SMILES string. Where “and” joins values, the source holds several entries; their conditions need not be identical. Identical values can stand only once. This is one part of the list. Some well-known active drugs show little effect in this data set, so a weak value is uncertain.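 Prematurely aging human mesenchymal stem cells without the Werner syndrome gene were monitored by automated live-cell imaging over three biological repeats. The top twenty drugs for increasing growth versus vehicle moved forward; no fixed cutoff was specified.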 Bridge positions count the residues as written; N and C are the ends. Square brackets hold non-standard residues; d marks the D form. Peptide text beside a SMILES is read from it. * marks the point of attachment. Ileψ(thiazoline)Cys = CC[C@H](C)[C@H](N)C1=N[C@H](C(=O)*)CS1; dOrn = NCCC[C@@H](N)C(=O)O

Consider `CC(C)NCC(O)COc1ccc(CCOCC2CC2)cc1` (stereo not drawn), for which the relative cell density (vehicle: DMSO) is 1.01 and 0.991.

For the setting “vehicle: DMSO”, `CCc1nc(N)nc(N)c1-c1ccc(Cl)cc1` displayed a relative cell density of 0.877.

Take `CCN(C(=O)c1c(O)c2c(Cl)cccc2n(C)c1=O)c1ccccc1`: where the note is “vehicle: DMSO”, the relative cell density came out at 0.994.

Take `CN1CC(=O)N2[C@H](c3ccc4c(c3)OCO4)c3[nH]c4ccccc4c3C[C@@H]2C1=O`: the relative cell density (vehicle: DMSO) stood at 1.3.

On to `CCCN1CCCC[C@H]1C(=O)Nc1c(C)cccc1C`, for which the relative cell density (vehicle: DMSO) was 0.894.

For `CC(C)(OCc1nn(Cc2ccccc2)c2ccccc12)C(=O)O`, the relative cell density (vehicle: DMSO) is 1.15.

In the case of `CNC[C@H](O)c1ccc(O)c(O)c1`, the relative cell density (vehicle: DMSO) is 0.96 and 1.3.

`COC[C@H]1C[C@@H](c2nc(-c3ccc4c(c3)COc3cc5c(ccc6nc([C@@H]7CC[C@H](C)N7C(=O)[C@@H](NC(=O)OC)C(C)C)[nH]c65)cc3-4)c[nH]2)N(C(=O)[C@H](NC(=O)OC)c2ccccc2)C1`: the relative cell density (vehicle: DMSO) was 0.933.

Take `CN1CCN(CCCN2c3ccccc3Sc3ccc(C(F)(F)F)cc32)CC1`: for the setting “vehicle: DMSO”, the relative cell density is 1.02.

For the molecule `CC(S)C(=O)NCC(=O)O` (stereo not drawn), under “vehicle: DMSO”, the relative cell density was found to be 0.964.

Take `NC(=O)c1cccc2cn(-c3ccc([C@@H]4CCCNC4)cc3)nc12`: under “vehicle: DMSO”, the relative cell density was 0.691 and 1.03.

With `CC[C@H](C)[C@H](N)C1=N[C@H](C(=O)N[C@@H](CC(C)C)C(=O)N[C@H](CCC(=O)O)C(=O)N[C@H](C(=O)N[C@H]2CCCCNC(=O)[C@H](CC(N)=O)NC(=O)[C@@H](CC(=O)O)NC(=O)[C@H](Cc3cnc[nH]3)NC(=O)[C@@H](Cc3ccccc3)NC(=O)[C@H]([C@@H](C)CC)NC(=O)[C@@H](CCCN)NC2=O)[C@@H](C)CC)CS1` ({Ileψ(thiazoline)Cys}-L[dE]IK[dOrn]I[dF]H[dD]N; lactam 4-C), where the note is “vehicle: Water”, the relative cell density is 0.984.

The molecule `OC(CNCC(O)C1CCc2cc(F)ccc2O1)C1CCc2cc(F)ccc2O1` (stereo not drawn) came in with a relative cell density (vehicle: DMSO) of 1.12.

Turning to `Oc1c(I)cc(Cl)c2cccnc12`, the relative cell density (vehicle: DMSO) stood at 1.16.

`C[C@@H](O)[C@H]1C(=O)N2C(C(=O)O)=C(S[C@@H]3CN[C@H](CNS(N)(=O)=O)C3)[C@H](C)[C@H]12`: the relative cell density (vehicle: DMSO) was 0.977.

With `COc1cc2nccc(Oc3ccc(NC(=O)Nc4cc(C)on4)c(Cl)c3)c2cc1OC`, where the note is “vehicle: DMSO”, the relative cell density came out at 1.09.

`CC(C)(C#N)c1cc(Cn2cncn2)cc(C(C)(C)C#N)c1` registered a relative cell density (vehicle: DMSO) of 1.07.

On to `C=CCNC(N)=S`, for which the relative cell density (vehicle: DMSO) turned out to be 1.17.

`CN(C)CCOC(C)(c1ccccc1)c1ccccn1` (stereo not drawn) displayed a relative cell density (vehicle: DMSO) of 1.26.

For the setting “vehicle: DMSO”, `Nc1ccn([C@H]2CC[C@@H](CO)O2)c(=O)n1` gave a relative cell density of 1.1.

`Nc1nc2ccc(OC(F)(F)F)cc2s1` returned a relative cell density (vehicle: DMSO) of 1.13.

With `CN1CCC(=C2c3ccccc3CCc3cccnc32)CC1`, where the note is “vehicle: DMSO”, the relative cell density worked out at 1.05.

With `COc1ccc2c(c1)c(CC(=O)O)c(C)n2C(=O)c1ccc(Cl)cc1`, the relative cell density (vehicle: DMSO) worked out at 1.01.

Under “vehicle: DMSO”, `CCC/N=C1\S/C(=C\c2ccc(OC[C@H](O)CO)c(Cl)c2)C(=O)N1c1ccccc1C` yielded a relative cell density of 0.851.

`CC(C)C[C@H](NC(=O)[C@@H](NC(=O)c1cccc(-c2ccccc2)n1)[C@@H](C)O)B(O)O`: the relative cell density (vehicle: DMSO) worked out at 0.215.

Regarding `O=C([O-])c1ccccc1.[Na+]`, the relative cell density (vehicle: DMSO) worked out at 1.05.

Regarding `C[C@]1(O)C[C@@H](c2nc(-c3ccc4ccc(-c5ccccc5)nc4c3)c3c(N)nccn32)C1`, the relative cell density (vehicle: DMSO) turned out to be 0.611.

Under “vehicle: DMSO”, `C[C@@H]1CCO[C@H]2Cn3cc(C(=O)NCc4ccc(F)cc4F)c(=O)c(O)c3C(=O)N12` returned a relative cell density of 1.12.

The molecule `O=C(C1CCCCC1)N1CC(=O)N2CCc3ccccc3C2C1` (stereo not drawn) showed a relative cell density (vehicle: DMSO) of 1.05.

`C(=C\c1ccccc1)/CN1CCN(C(c2ccccc2)c2ccccc2)CC1`: the relative cell density (vehicle: DMSO) came out at 1.08.

The molecule `CC(=O)NCCCS(=O)(=O)O` registered a relative cell density (vehicle: Water) of 1.07.

With `O=C(O)c1cc(/N=N/c2ccc(O)c(C(=O)O)c2)ccc1O`, the relative cell density (vehicle: DMSO) was determined as 1.02.

Consider `CC(C)(C)NCC(O)COc1cccc2c1CCC(=O)N2` (stereo not drawn), for which, for the setting “vehicle: DMSO”, the relative cell density turned out to be 1.11.

As for `CNC(=O)c1cc(Oc2ccc(NC(=O)Nc3ccc(Cl)c(C(F)(F)F)c3)c(F)c2)ccn1`, for the setting “vehicle: DMSO”, the relative cell density is 0.917 and 1.18.

Under “vehicle: DMSO”, `CN(C)C(=O)C(CCN1CCC(O)(c2ccc(Cl)cc2)CC1)(c1ccccc1)c1ccccc1` registered a relative cell density of 1.13.

For the setting “vehicle: DMSO”, `Cc1ccccc1C(=O)Nc1ccc(C(=O)N2CCCC(O)c3cc(Cl)ccc32)c(C)c1` (stereo not drawn) registered a relative cell density of 1.05.

The molecule `Nc1nc2[nH]cnc2c(=S)[nH]1` yielded a relative cell density (vehicle: DMSO) of 0.916.

As to `CC(C(=O)O)c1ccc2c(c1)[nH]c1ccc(Cl)cc12` (stereo not drawn), the relative cell density (vehicle: DMSO) was determined as 0.876.

Regarding `CO/N=C(\C(=O)N[C@@H]1C(=O)N2C(C(=O)O)=C(CSc3nnnn3C)CS[C@H]12)c1csc(N)n1`, under “vehicle: DMSO”, the relative cell density was 1.02.

Turning to `C[C@H]1O[C@@H](O[C@H]2[C@@H](O)C[C@H](O[C@H]3[C@@H](O)C[C@H](O[C@H]4CC[C@@]5(C)[C@H](CC[C@@H]6[C@@H]5C[C@@H](O)[C@]5(C)[C@@H](C7=CC(=O)OC7)CC[C@]65O)C4)O[C@@H]3C)O[C@@H]2C)C[C@H](O)[C@@H]1O`, the relative cell density (vehicle: DMSO) amounted to 0.192.

The molecule `CC(C(=O)O)c1ccc(-c2ccccc2)c(F)c1` (stereo not drawn) returned a relative cell density (vehicle: DMSO) of 1.08.

Take `NC(=O)c1cn(Cc2c(F)cccc2F)nn1`: where the note is “vehicle: DMSO”, the relative cell density turned out to be 0.841.

For the molecule `CC[C@H]1OC(=O)[C@H](C)[C@@H](O[C@H]2C[C@@](C)(OC)[C@@H](O)[C@H](C)O2)[C@H](C)[C@@H](O[C@@H]2O[C@H](C)C[C@H](N(C)C)[C@H]2O)[C@](C)(O)C[C@@H](C)C(=O)[C@H](C)[C@H]2OC(=O)O[C@@]21C`, under “vehicle: DMSO”, the relative cell density is 1.13.

Take `Cc1c(OCC(F)(F)F)ccnc1C[S@@+]([O-])c1nc2ccccc2[nH]1`: the relative cell density (vehicle: DMSO) was determined as 1.05.

For the molecule `C[C@H](CCC(=O)O)[C@H]1CC[C@H]2[C@@H]3[C@H](O)C[C@@H]4C[C@H](O)CC[C@]4(C)[C@H]3C[C@H](O)[C@]12C`, the relative cell density (vehicle: DMSO) amounted to 0.998.

For the setting “vehicle: DMSO”, `Cc1cccc(C)c1OCC(C)N` (stereo not drawn) registered a relative cell density of 0.147.

In turn, `CN1[C@@H]2CC[C@H]1C[C@@H](OC(=O)c1c[nH]c3ccccc13)C2` had a relative cell density (vehicle: DMSO) of 1.3.

Molecule `Cc1cc(=O)[nH]c(=S)[nH]1` yielded a relative cell density (vehicle: DMSO) of 1.04.

The molecule `CC[C@]1(O)C[C@H]2CN(CCc3c([nH]c4ccccc34)[C@@](C(=O)OC)(c3cc4c(cc3OC)N(C=O)[C@H]3[C@@](O)(C(=O)OC)[C@H](OC(C)=O)[C@]5(CC)C=CCN6CC[C@]43[C@@H]65)C2)C1` yielded a relative cell density (vehicle: DMSO) of 0.159.

Molecule `Nc1nc(CC(=O)Nc2ccc(CCNC[C@H](O)c3ccccc3)cc2)cs1` registered a relative cell density (vehicle: DMSO) of 1.04.

As to `NC[C@@H]1O[C@H](O[C@H]2[C@@H](O)[C@H](O[C@@H]3[C@@H](O)[C@H](N)C[C@H](N)[C@H]3O[C@H]3O[C@H](CO)[C@@H](O)[C@H](O)[C@H]3N)O[C@@H]2CO)[C@H](N)[C@@H](O)[C@@H]1O`, the relative cell density (vehicle: Water) was determined as 0.814.

In turn, `COc1ccccc1OCC(O)CO` (stereo not drawn) came in with a relative cell density (vehicle: DMSO) of 1.29.

`Oc1c(Cl)cc(Cl)c(Cl)c1Cc1c(O)c(Cl)cc(Cl)c1Cl` came in with a relative cell density (vehicle: DMSO) of 0.655.

(Values after the supplement of paper PMC9226226.)
